The results in this text go back to PubChem BioAssay AID1347423 (Functional Genomics Laboratory (NCATS/FGL), 2020).

The whole screen tested about 52,000 sequences, of which about 210 (0.4%) were called active.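 Rule for the calls: active = gene whose silencing raises cell survival under the drug, median off-target-corrected z-score across its silencing RNAs 2 or more; inactive = the rest.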 The list shows a part of the results.

The experiment can be described thus: Resistance to Poly (ADP-Ribose) Polymerase inhibitor: Gene Identification via Genome-wide siRNA Screen. The note with it: mouse BRCA2 R2336H ES cells, olaparib, CellTiter-Glo viability; stronger effect = higher value. A digest of the protocol: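 Mouse BRCA2 R2336H ES cells were reverse-transfected with siRNA (20 nM final), treated at 48 h with 500 nM olaparib, and read by CellTiter-Glo after 72 h. Scores: MAD-based z per siRNA, median per gene, seed off-target correction.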
Background: Cellular ATP, detected with luciferase, serves as a proxy for viable cell number.
For the sequence GGAGUUAGAAUUGAACCUUTT against Mr1, the z-score was inactive: -1.04.

For GCAUCAUUCCUACCGAUGUTT against Ly6g5b, the z-score was inactive: -0.228.

On to GGAAAACAACAUGAUCGUGTT against BC004012, for which the z-score was inactive: 0.454.

With GCAGAUCCGAGACAAGUAUTT against Cplx2, the z-score is inactive: -2.94.

In the case of GAGAAAUACCAUUUCCUACTT against Olfr497, the z-score was inactive: 0.595.

As for GCCAUCUUAAACAUGCCUGTT against Tdpoz2, the z-score is inactive: 0.541.

Take GGCUGUCUUGUCCAAAUGUTT against Olfr1357: the z-score is inactive: -0.104.

Regarding CCUCUACUGUACUUAUACATT against Cpn2, the z-score is inactive: -0.288.

For GCCACACAAAAUUUGGCAUTT against LOC382109, the z-score was inactive: 1.23.

Consider CCUAAACUGUAGUUGUCUGTT against S100a14, for which the z-score was inactive: 1.1.

In the case of CCAAUGAGUUAAUCACCUUTT against Olfr1135, the z-score is inactive: 1.01.

On to CCGAAUCCUAUAUUUGACATT against Ptprj, for which the z-score is inactive: -1.28.

For GGACAACUAGCUUCUUGUATT against Dnmt2, the z-score was inactive: 0.477.

Turning to GGGCCUGGAUUACUUACACTT against Srpk1, the z-score was inactive: 1.32.

Regarding “GGAGUUACCAAUUUUGAAATT against 0610040B21Rik”, the z-score is inactive: -0.519.

As for GGGAUAGCUCUUAUUAUUUTT against Man2b2, the z-score is inactive: 0.0226.

As for GCUGUACUUCUAGCUCGGATT against Il17rc, the z-score was inactive: -1.72.

For “GCCCUGAAAUGAAACUGCUTT against 5530601I19Rik”, the z-score was inactive: 0.618.

Take GCUGUACAUUCCGAUUAUCTT against Olfr1134: the z-score was inactive: 1.4.

Turning to GCAUUCUCAAGUGAGGCGUTT against Atp5k, the z-score was inactive: 0.484.

With GGAGAUGGCUUAAAUAAAUTT against Cox6a1, the z-score is inactive: 0.136.

GCCAGUCCAAAGCUUCAAATT against Eif3s9: the z-score is inactive: 1.44.

Take GGAGGAAAUCAGUGCAGAATT against Luc7l: the z-score was inactive: -3.18.

In the case of “CCAAUCACCAGAGACUAACTT against 9630044O09Rik”, the z-score was inactive: 1.53.

As to GGACCUUUUUUGUUCAAAATT against Rasd1, the z-score was inactive: 0.259.

As to GGAUCUCUUCGACUAUAUCTT against Pim2, the z-score was inactive: 0.669.

Take GGCCCUAUUUGGCUACGUUTT against Dgat2: the z-score was inactive: 2.06.

With GGGAACUACGCACAACGAATT against Hist1h2aa, the z-score is inactive: 0.496.

On to CCCUGAAUAAGGCUGAUCUTT against Krt1-2, for which the z-score was inactive: -0.75.

As to GGUGAUCAACUUCCUGAAATT against Hdac11, the z-score was inactive: -0.16.

For GGCCAUACACCUGUGACAUTT against Osr2, the z-score is inactive: -0.202.

Regarding CCUCUACAUUCCAGCCAUGTT against Yif1b, the z-score is inactive: -0.398.

For GCUGCAUCGAAAAACUCAGTT against Phr1, the z-score was inactive: 0.7.

Consider CCUUCUUGUGGGAGUGAAATT against Chodl, for which the z-score is inactive: -0.64.

Regarding CGCAUCAACAAAUUUACAATT against Kcnh7, the z-score was inactive: 0.675.

As for GGCAAAAAUGAGAAAGAGATT against Hebp2, the z-score is inactive: -0.218.

Regarding “GCUAAUAUACCUCUCAAAATT against 1300003B13Rik”, the z-score was inactive: 0.721.

For the sequence CGUUGGAUCUUGAUAAAACTT against Edg4, the z-score is inactive: 0.325.

As for CCGAAUCUCUGUGUACUAUTT against Tubb5, the z-score is inactive: -0.325.

On to “GCCCACUCAUUCAUGGAAATT against 2410004J23Rik”, for which the z-score was inactive: 0.523.

Consider “GCACUGAUGAUGUGGUGGCTT against 1500032L24Rik”, for which the z-score is inactive: 0.935.

As to GGACUGAAUCAAGUAGAGUTT against Dkk2, the z-score is inactive: 0.661.

Take GGUAAACCAAACAAAACCATT against Rpl35a: the z-score was inactive: -0.512.

For UGUGGUGAACCCAAUGCACTT against Klk22, the z-score was inactive: -1.05.

Take GGUUGUUUAAACUCAGUUUTT against Slco4c1: the z-score is inactive: -1.83.

On to CCAAUAACUUCGCUUAUAUTT against Ms4a2, for which the z-score is inactive: 0.801.

As to GGCAAAAACUAUGAACUACTT against Ctsd, the z-score was inactive: 1.13.

With GGAGUGGUCAGCCAAACUUTT against Entpd3, the z-score is inactive: 0.105.

As to CCUCACAAGAGGCCUGUGUTT against Fstl1, the z-score was inactive: -3.23.

Turning to GGCCAUUACUCAAAUGUAUTT against Ppp2r2d, the z-score is inactive: 0.155.

For the sequence GCUCUUUGAGACUAGGCCCTT against Cmya1, the z-score was inactive: 0.749.

For “GGAUACAGCAGAUCUUAUUTT against 2410007P03Rik”, the z-score is inactive: -1.33.

For the sequence GCCAGUUUCCGCAUCUACCTT against Hoxa7, the z-score was inactive: -0.502.

Turning to GGCUAUGCUUGAGGGAGUGTT against Oog4, the z-score is inactive: -0.0182.

In the case of GGCCACACAGAAUAGCUCUTT against Taf6l, the z-score is inactive: 0.419.

As for “GGCAUUAGGAUACAUAACATT against 1700047E16Rik”, the z-score is inactive: 0.789.

As to GGAAGAUCAUAAUGGACAGTT against Pcsk9, the z-score was inactive: 0.187.

As for GCAAGGCUUGGGUAACCAUTT against Apbb1ip, the z-score was inactive: -0.851.

GCAUCAAGGCUCAUAUGAUTT against Taf15: the z-score is inactive: 1.05.

Take CGUAUUGCCUUAGUGUAUGTT against Olfr433: the z-score is inactive: 0.29.

In the case of GCCAUGAGACACCUUCUCUTT against Olfr843, the z-score was inactive: -0.106.

Consider GUUAUUUGUAUGGUGAGAUTT against Hpcal1, for which the z-score was inactive: -0.459.

Turning to “GGAACUCAGAGCUAAACUUTT against 3110010F15Rik”, the z-score was inactive: -0.404.

With GCUUCUAAGCCGAAGGCCATT against Hist1h1d, the z-score is inactive: 0.442.

For CCAAGAGUAACCUCUACAATT against Hivep3, the z-score was inactive: -0.148.

With GGAGAUACUAUGUUGCAUUTT against Fgf9, the z-score is inactive: 0.673.

On to GCAGCAUCCAACUUCCGCUTT against Gpr43, for which the z-score is inactive: -0.97.
